Results deposited as PubChem BioAssay AID1259289 (Sanger Institute, 2017)

- Assay: 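Kinase-wide silencing tested with three anchor drugs to reveal synergistic lethal pairs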 (primary screen)
- System: human LS513 colorectal cancer cells
- Reagent: siRNA pool against human genes
- Conditions: anchor drug BYL719 at 1 µM, cetuximab at 5 µg/ml or trametinib at 10 nM, or DMSO vehicle alone; exposure time not given
- Detection: 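Survival versus non-targeting pool for each arm averaged over replicates, robust z-score in the arm with DMSO only, and synergy scores for BYL719, cetuximab or trametinib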
- Scale: robust z-score, siRNA alone (DMSO): higher = more viable cells; strongly negative means essential
- Hit rule: 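a gene counts as active if its DMSO-only robust z-score falls under -3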
- Calls: active = essential (knock-down alone); inactive = not essential
This is a random part of 794 reagents. 16 of them (2%) count as active. 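Active marks cell loss from silencing alone; drug synergy shows only in the synergy scores, not the calls.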 Not all columns of the deposit are shown. Reagent sequences are not shown. The record does not give: the amount of reagent, the time to read-out.

Gene | robust z-score, siRNA alone (DMSO) | activity call
EIF2AK2 | 0.561 | inactive
FXR1 | 0.561 | inactive
CTNNB1 | -3.83 | active
FOXP1 | -2.54 | inactive
SMC1A | -0.0126 | inactive
DLG4 | 0.561 | inactive
PIK3C3 | 0.561 | inactive
CDKL5 | 0.527 | inactive
DBF4 | 0.561 | inactive
BCR | 0.114 | inactive
PRKAR1A | 0.561 | inactive
MAPK10 | 0.561 | inactive
BCKDK | 0.561 | inactive
HK2 | -0.667 | inactive
DMPK | -0.617 | inactive
CKMT1B | -0.113 | inactive
RIPK4 | -0.0238 | inactive
FGFR4 | 0.561 | inactive
PHKG1 | 0.561 | inactive
MAP3K6 | 0.561 | inactive
MAPK12 | 0.561 | inactive
CSNK2A2 | 0.561 | inactive
EPHA7 | 0.561 | inactive
IP6K1 | 0.561 | inactive
MYLK4 | 0.368 | inactive
BRD3 | 0.561 | inactive
PRKAB2 | -2.96 | inactive
PXK | -0.904 | inactive
DYRK3 | 0.247 | inactive
DTYMK | 0.561 | inactive
PDK3 | 0.388 | inactive
CSNK1G3 | 0.561 | inactive
FN1 | 0.561 | inactive
ABL2 | 0.561 | inactive
AKT3 | -0.845 | inactive
PRKCI | 0.561 | inactive
KSR2 | 0.561 | inactive
CERT1 | 0.561 | inactive
MAPKAPK5 | -0.308 | inactive
GRK1 | 0.561 | inactive
RIPK3 | 0.44 | inactive
DYRK2 | 0.561 | inactive
CDKL2 | -0.0537 | inactive
ADCK2 | -2.5 | inactive
DYRK1A | 0.561 | inactive
MAPK13 | 0.561 | inactive
PTEN | 0.561 | inactive
CHKA | -1.94 | inactive
NUAK2 | 0.561 | inactive
PAPSS2 | 0.561 | inactive
EPHA6 | -4.42 | active
ACVR1 | -0.071 | inactive
AK2 | 0.561 | inactive
PRKDC | -0.0698 | inactive
PRKD2 | 0.561 | inactive
PDGFRB | -1.76 | inactive
PIK3C2A | -3.55 | active
GRK7 | -0.737 | inactive
CDK4 | 0.561 | inactive
MST1R | 0.561 | inactive
TEX14 | 0.561 | inactive
LCK | 0.561 | inactive
NUCKS1 | 0.561 | inactive

3 consecutive records from above, for reference:
Gene | robust z-score, siRNA alone (DMSO) | activity call
PHKG1 | 0.561 | inactive
MAP3K6 | 0.561 | inactive
MAPK12 | 0.561 | inactive
